{"source": "the supplement of paper PMC8728848", "binders": {"B1": {"name": "C7A (Sus scrofa) (peptide)", "chain": "KILRGVCKKIMRTFLRRISKKILTGKK"}}, "assay_in_all_cases": "glycan array binding signal (z-score within array); higher = stronger binding", "details_in_all_cases": "glycan notation: IUPAC condensed, linker removed; mutation: D21K", "key": {"[1]": {"target": "Man(a1-2)Man(a1-3)[Man(a1-2)Man(a1-6)]Man", "outline": "(§1)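 The binding signal is a Z-score computed within each array. Data were drawn from 3228 arrays in the Consortium for Functional Glycomics database, restricted to those with a known protein sequence. Scores were averaged over arrays of the same protein sequence at different concentrations or buffers, and over linkers, and negative values can be taken as non-binding.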"}, "[2]": {"target": "Man(a1-2)Man(a1-3)[Man(a1-2)Man(a1-6)]Man(a1-6)[Man(a1-2)Man(a1-2)Man(a1-3)]Man", "outline": "as §1"}, "[3]": {"target": "Man(a1-2)Man(a1-3)[Man(a1-2)Man(a1-6)]Man(a1-6)[Man(a1-2)Man(a1-2)Man(a1-3)]Man(b1-4)GlcNAc(b1-4)GlcNAc", "outline": "as §1"}, "[4]": {"target": "Man(a1-2)Man(a1-3)[Man(a1-6)]Man(a1-6)[Man(a1-2)Man(a1-3)]Man(b1-4)GlcNAc(b1-4)GlcNAc", "outline": "as §1"}, "[5]": {"target": "Man(a1-2)Man(a1-6)[Man(a1-3)]Man(a1-6)[Man(a1-2)Man(a1-2)Man(a1-3)]Man", "outline": "as §1"}, "[6]": {"target": "Man(a1-2)Man(a1-6)[Man(a1-3)]Man(a1-6)[Man(a1-2)Man(a1-2)Man(a1-3)]Man(b1-4)GlcNAc(b1-4)GlcNAc", "outline": "as §1"}, "Man(a1-3)[Man(a1-6)]Man": {"target": "Man(a1-3)[Man(a1-6)]Man", "outline": "as §1"}, "[7]": {"target": "Man(a1-3)[Man(a1-6)]Man(a1-6)[Man(a1-2)Man(a1-3)]Man(b1-4)GlcNAc(b1-4)GlcNAc", "outline": "as §1"}, "[8]": {"target": "Man(a1-3)[Man(a1-6)]Man(a1-6)[Man(a1-3)]Man", "outline": "as §1"}, "[9]": {"target": "Man(a1-3)[Man(a1-6)]Man(a1-6)[Man(a1-3)]Man(b1-4)GlcNAc(b1-4)GlcNAc", "outline": "as §1"}, "[10]": {"target": "Man(a1-3)[Man(a1-6)]Man(b1-4)GlcNAc(b1-4)GlcNAc", "outline": "as §1"}, "[11]": {"target": "Man(a1-3)[Man(a1-6)]Man(b1-4)GlcNAc(b1-4)[Fuc(a1-6)]GlcNAc", "outline": "as §1"}, "Man(a1-6)Man": {"target": "Man(a1-6)Man", "outline": "as §1"}, "Man(b1-4)GlcNAc": {"target": "Man(b1-4)GlcNAc", "outline": "as §1"}, "MurNAc(b1-4)GlcNAc": {"target": "MurNAc(b1-4)GlcNAc", "outline": "as §1"}, "Neu5Ac(a2-3)Gal": {"target": "Neu5Ac(a2-3)Gal", "outline": "as §1"}, "[12]": {"target": "Neu5Ac(a2-3)Gal(b1-3)GalNAc", "outline": "as §1"}, "[13]": {"target": "Neu5Ac(a2-3)Gal(b1-3)GalNAc(b1-3)Gal(a1-4)Gal(b1-4)Glc", "outline": "as §1"}, "[14]": {"target": "Neu5Ac(a2-3)Gal(b1-3)GalNAc(b1-4)Gal(b1-4)Glc", "outline": "as §1"}, "[15]": {"target": "Neu5Ac(a2-3)Gal(b1-3)GalNAc(b1-4)[Neu5Ac(a2-3)]Gal(b1-4)Glc", "outline": "as §1"}, "[16]": {"target": "Neu5Ac(a2-3)Gal(b1-3)GalNAc(b1-4)[Neu5Ac(a2-8)Neu5Ac(a2-3)]Gal(b1-4)Glc", "outline": "as §1"}, "[17]": {"target": "Neu5Ac(a2-3)Gal(b1-3)GalNAc6S", "outline": "as §1"}, "[18]": {"target": "Neu5Ac(a2-3)Gal(b1-3)GlcNAc", "outline": "as §1"}, "[19]": {"target": "Neu5Ac(a2-3)Gal(b1-3)GlcNAc(b1-2)Man", "outline": "as §1"}, "[20]": {"target": "Neu5Ac(a2-3)Gal(b1-3)GlcNAc(b1-2)Man(a1-3)[GlcNAc(b1-4)][Neu5Ac(a2-3)Gal(b1-3)GlcNAc(b1-2)Man(a1-6)]Man(b1-4)GlcNAc(b1-4)GlcNAc", "outline": "as §1"}, "[21]": {"target": "Neu5Ac(a2-3)Gal(b1-3)GlcNAc(b1-2)Man(a1-3)[Neu5Ac(a2-3)Gal(b1-3)GlcNAc(b1-2)Man(a1-6)]Man(b1-4)GlcNAc(b1-4)GlcNAc", "outline": "as §1"}, "[22]": {"target": "Neu5Ac(a2-3)Gal(b1-3)GlcNAc(b1-2)[Neu5Ac(a2-3)Gal(b1-3)GlcNAc(b1-4)]Man(a1-6)[Neu5Ac(a2-3)Gal(b1-3)GlcNAc(b1-2)Man(a1-3)]Man(b1-4)GlcNAc(b1-4)GlcNAc", "outline": "as §1"}, "[23]": {"target": "Neu5Ac(a2-3)Gal(b1-3)GlcNAc(b1-3)Gal(b1-3)GlcNAc", "outline": "as §1"}, "[24]": {"target": "Neu5Ac(a2-3)Gal(b1-3)GlcNAc(b1-3)Gal(b1-4)GlcNAc", "outline": "as §1"}, "[25]": {"target": "Neu5Ac(a2-3)Gal(b1-3)GlcNAc(b1-3)GalNAc", "outline": "as §1"}, "[26]": {"target": "Neu5Ac(a2-3)Gal(b1-3)GlcNAc(b1-6)GalNAc", "outline": "as §1"}, "[27]": {"target": "Neu5Ac(a2-3)Gal(b1-3)GlcNAc6S", "outline": "as §1"}, "[28]": {"target": "Neu5Ac(a2-3)Gal(b1-3)[Fuc(a1-4)]GlcNAc", "outline": "as §1"}, "[29]": {"target": "Neu5Ac(a2-3)Gal(b1-3)[Fuc(a1-4)]GlcNAc(b1-3)Gal(b1-3)[Fuc(a1-4)]GlcNAc", "outline": "as §1"}, "[30]": {"target": "Neu5Ac(a2-3)Gal(b1-3)[Fuc(a1-4)]GlcNAc(b1-3)Gal(b1-4)[Fuc(a1-3)]GlcNAc", "outline": "as §1"}, "[31]": {"target": "Neu5Ac(a2-3)Gal(b1-3)[GlcNAc(b1-6)]GalNAc", "outline": "as §1"}, "[32]": {"target": "Neu5Ac(a2-3)Gal(b1-3)[Neu5Ac(a2-6)]GalNAc", "outline": "as §1"}, "[33]": {"target": "Neu5Ac(a2-3)Gal(b1-3)[Neu5Ac(a2-6)]GlcNAc(b1-3)[Fuc(a1-3)[Gal(b1-4)]GlcNAc(b1-6)]Gal(b1-4)Glc", "outline": "as §1"}}, "note": "Some of the results follow.", "data": [{"binder": "B1", "values": [{"measurement": "glycan array binding signal (z-score)", "setting": "[1]", "result": -1.45}, {"measurement": "glycan array binding signal (z-score)", "setting": "[2]", "result": -1.61}, {"measurement": "glycan array binding signal (z-score)", "setting": "[3]", "result": 0.024}, {"measurement": "glycan array binding signal (z-score)", "setting": "[4]", "result": -2.27}, {"measurement": "glycan array binding signal (z-score)", "setting": "[5]", "result": -0.112}, {"measurement": "glycan array binding signal (z-score)", "setting": "[6]", "result": 1.17}, {"measurement": "glycan array binding signal (z-score)", "setting": "Man(a1-3)[Man(a1-6)]Man", "result": 0.764}, {"measurement": "glycan array binding signal (z-score)", "setting": "[7]", "result": 0.585}, {"measurement": "glycan array binding signal (z-score)", "setting": "[8]", "result": -1.4}, {"measurement": "glycan array binding signal (z-score)", "setting": "[9]", "result": 1.28}, {"measurement": "glycan array binding signal (z-score)", "setting": "[10]", "result": -0.566}, {"measurement": "glycan array binding signal (z-score)", "setting": "[11]", "result": -0.065}, {"measurement": "glycan array binding signal (z-score)", "setting": "Man(a1-6)Man", "result": -0.219}, {"measurement": "glycan array binding signal (z-score)", "setting": "Man(b1-4)GlcNAc", "result": -0.45}, {"measurement": "glycan array binding signal (z-score)", "setting": "MurNAc(b1-4)GlcNAc", "result": -0.482}, {"measurement": "glycan array binding signal (z-score)", "setting": "Neu5Ac(a2-3)Gal", "result": -0.224}, {"measurement": "glycan array binding signal (z-score)", "setting": "[12]", "result": -0.285}, {"measurement": "glycan array binding signal (z-score)", "setting": "[13]", "result": 0.404}, {"measurement": "glycan array binding signal (z-score)", "setting": "[14]", "result": -0.925}, {"measurement": "glycan array binding signal (z-score)", "setting": "[15]", "result": 1.17}, {"measurement": "glycan array binding signal (z-score)", "setting": "[16]", "result": -0.201}, {"measurement": "glycan array binding signal (z-score)", "setting": "[17]", "result": -0.478}, {"measurement": "glycan array binding signal (z-score)", "setting": "[18]", "result": 1.04}, {"measurement": "glycan array binding signal (z-score)", "setting": "[19]", "result": 0.216}, {"measurement": "glycan array binding signal (z-score)", "setting": "[20]", "result": -0.465}, {"measurement": "glycan array binding signal (z-score)", "setting": "[21]", "result": -1.49}, {"measurement": "glycan array binding signal (z-score)", "setting": "[22]", "result": 0.661}, {"measurement": "glycan array binding signal (z-score)", "setting": "[23]", "result": 0.309}, {"measurement": "glycan array binding signal (z-score)", "setting": "[24]", "result": 0.978}, {"measurement": "glycan array binding signal (z-score)", "setting": "[25]", "result": 1.71}, {"measurement": "glycan array binding signal (z-score)", "setting": "[26]", "result": 2.06}, {"measurement": "glycan array binding signal (z-score)", "setting": "[27]", "result": 1.71}, {"measurement": "glycan array binding signal (z-score)", "setting": "[28]", "result": -0.097}, {"measurement": "glycan array binding signal (z-score)", "setting": "[29]", "result": 0.741}, {"measurement": "glycan array binding signal (z-score)", "setting": "[30]", "result": 0.502}, {"measurement": "glycan array binding signal (z-score)", "setting": "[31]", "result": 0.8}, {"measurement": "glycan array binding signal (z-score)", "setting": "[32]", "result": -0.339}, {"measurement": "glycan array binding signal (z-score)", "setting": "[33]", "result": -0.761}]}]}
